Some entries share one result that the patent states for a list of compounds.
What was measured:
Format in all cases: in vivo
Plutella xylostella = experiment: Example N Test 3: leaf disks sprayed, LD90; details: larvae of the 2nd development stage; spray; 48 h
Phaedon cochleariae = experiment: Example N Test 1: beet leaf disks sprayed (Potter tower), LD90; details: adults on beet leaf disks, spray 660 liters per hectare; 48 h; Abbott's formula
Pieris brassicae = experiment: Example N Test 2: leaf disks sprayed, LD90; details: larvae of the 2nd development stage; spray; 48 h
[1] = system: Female cattle ticks (Boophilus microplus); experiment: Example N Test 7: engorged female cattle tick dip, minimum effective concentration; details: engorged females dipped 1 minute; no viable eggs; six days after treatment
[2] = system: Boophilus microplus larvae; experiment: Example N Test 6: tick larvae dip, minimum effective concentration; details: two-week-old larvae dipped 4 minutes; 100% mortality within 48 h
Gryllus bimaculatus = experiment: Example N Test 4: treated soil, nymph mortality LC90; details: nymphs 1st development stage in treated soil; 48 h; Abbott's formula
Lucilia sericata = experiment: Example N Test 5: treated milk-yeast-agar diet, minimum effective dose; details: 1st stage larvae on treated diet; lowest dosage stopping further development of the larvae

| SMILES | LD90 (dosage which leads to 90% mortality) (Plutella xylostella) [% by weight] | further results |
| --- | --- | --- |
| O=[N+]([O-])c1cccc(C#CCN2CCCCC2)c1 [Example 10] | ≤ 0.05 | – |
| CC1CCN(CC#Cc2c(F)cccc2F)CC1 [Example 12] | ≤ 0.05 | – |
| CC1CCN(CC#Cc2c(Cl)cccc2Cl)CC1 [Example 13] | ≤ 0.05 | – |
| CC1CCN(CC#Cc2ccc(Cl)c(C(F)(F)F)c2)CC1 [Example 14] | ≤ 0.05 | LD90 (dosage which leads to 90% mortality) (Phaedon cochleariae): ≤ 0.05 % by weight; LD90 (dosage which leads to 90% mortality) (Pieris brassicae): ≤ 0.006 % by weight |
| CC1CCN(CC#Cc2ccc(Cl)c(Cl)c2Cl)CC1 [Example 15] | ≤ 0.05 | – |
| CC1CCN(CC#Cc2cc(Cl)c(Cl)cc2Cl)CC1 [Example 16] | ≤ 0.05 | – |
| COc1c(Cl)cc(C#CCN2CCC(C)CC2)cc1Cl [Example 17] | ≤ 0.05 | – |
| CCC1CCCN(CC#Cc2ccc(Cl)c(C(F)(F)F)c2)C1 (stereo not drawn) [Example 18] | ≤ 0.05 | LD90 (dosage which leads to 90% mortality) (Phaedon cochleariae): ≤ 0.05 % by weight |
| CCC1CCCN(CC#Cc2ccc(Cl)c(Cl)c2Cl)C1 (stereo not drawn) [Example 19] | ≤ 0.05 | – |
| Cc1ccc(C#CCN2CCC(C)CC2)cc1 [Example 20] | ≤ 0.05 | minimum effective concentration (MEC) [1]: less than 0.2 % by weight; minimum effective concentration (MEC) [2]: ≤ 0.04 % by weight |
| CC1CCN(CC#Cc2ccc([N+](=O)[O-])cc2)CC1 [Example 23] | ≤ 0.05 | – |
| CC1CCN(CC#Cc2cccc(C(F)(F)F)c2)CC1 [Example 24] | ≤ 0.05 | – |
| Cc1ccccc1C#CCN1CCC(C)CC1 [Example 25] | ≤ 0.05 | minimum effective concentration (MEC) [2]: ≤ 0.04 % by weight |
| CC1CCN(CC#Cc2ccccc2C(F)(F)F)CC1 [Example 26] | ≤ 0.05 | – |
| Cc1cccc(C#CCN2CCC(C)CC2)c1 [Example 27] | – | minimum effective concentration (MEC) [1]: less than 0.2 % by weight; minimum effective concentration (MEC) [2]: ≤ 0.04 % by weight |
| CC1CCN(CC#Cc2ccc(F)cc2)CC1 [Example 28] | ≤ 0.05 | minimum effective concentration (MEC) [2]: ≤ 0.04 % by weight |
| CC1CCN(CC#Cc2ccc(C(F)(F)F)cc2)CC1 [Example 29] | ≤ 0.05 | LD90 (dosage which leads to 90% mortality) (Phaedon cochleariae): ≤ 0.05 % by weight; LD90 (dosage which leads to 90% mortality) (Pieris brassicae): ≤ 0.006 % by weight |
| CC1CCCN(CC#Cc2cc(C(F)(F)F)cc(C(F)(F)F)c2)C1 (stereo not drawn) [Example 31] | ≤ 0.05 | – |
| CCC1CCCN(CC#Cc2cc(C(F)(F)F)cc(C(F)(F)F)c2)C1 (stereo not drawn) [Example 32] | ≤ 0.05 | minimum effective concentration (MEC) [1]: less than 0.2 % by weight; minimum effective concentration (MEC) [2]: ≤ 0.04 % by weight |
| CCC1CCN(CC#Cc2cc(C(F)(F)F)cc(C(F)(F)F)c2)CC1 [Example 33] | ≤ 0.05 | LD90 (dosage which leads to 90% mortality) (Phaedon cochleariae): ≤ 0.05 % by weight; LD90 (dosage which leads to 90% mortality) (Pieris brassicae): ≤ 0.006 % by weight |
| CC1CCN(CC#Cc2cc(C(F)(F)F)cc(C(F)(F)F)c2)CC1C (stereo not drawn) [Example 34] | ≤ 0.05 | – |
| CCC1CCN(CC#Cc2ccccc2)CC1 [Example 35] | ≤ 0.05 | – |
| Cc1cc(Cl)ccc1C#CCN1CCC(C)CC1 [Example 100] | – | LD90 (dosage which leads to 90% mortality) (Pieris brassicae): ≤ 0.006 % by weight |
| CC1CCN(CC#Cc2ccc(Cl)cc2Cl)CC1.Cl [Example 1000] | ≤ 0.05 | – |
| CC1(C)CCCN(CC#Cc2cc(C(F)(F)F)cc(C(F)(F)F)c2)C1.Cl [Example 1001] | ≤ 0.05 | LD90 (dosage which leads to 90% mortality) (Phaedon cochleariae): ≤ 0.05 % by weight |
| CC1CCN(C(C)(C)C#Cc2cc(C(F)(F)F)cc(C(F)(F)F)c2)CC1.Cl [Example 1039] | ≤ 0.05 | LD90 (dosage which leads to 90% mortality) (Phaedon cochleariae): ≤ 0.05 % by weight; LC90 (concentration in the soil) (Gryllus bimaculatus): ≤ 50 ppm; LD90 (dosage which leads to 90% mortality) (Pieris brassicae): ≤ 0.006 % by weight; minimum effective dose (MED) (Lucilia sericata): ≤ 100 μg/glass |
